Experimental data published in article PMC4171630.
These are yes or no findings as the source states them, for the method shown. In cells and extracts the contact can be indirect. Some results given as binding are weak or reduced against the parent protein; the word gives no strength. Sequences can lack the tags named with a protein.

By UniProt entry, the sequences of proteins in these tests, tags left out.
UniProt P31749: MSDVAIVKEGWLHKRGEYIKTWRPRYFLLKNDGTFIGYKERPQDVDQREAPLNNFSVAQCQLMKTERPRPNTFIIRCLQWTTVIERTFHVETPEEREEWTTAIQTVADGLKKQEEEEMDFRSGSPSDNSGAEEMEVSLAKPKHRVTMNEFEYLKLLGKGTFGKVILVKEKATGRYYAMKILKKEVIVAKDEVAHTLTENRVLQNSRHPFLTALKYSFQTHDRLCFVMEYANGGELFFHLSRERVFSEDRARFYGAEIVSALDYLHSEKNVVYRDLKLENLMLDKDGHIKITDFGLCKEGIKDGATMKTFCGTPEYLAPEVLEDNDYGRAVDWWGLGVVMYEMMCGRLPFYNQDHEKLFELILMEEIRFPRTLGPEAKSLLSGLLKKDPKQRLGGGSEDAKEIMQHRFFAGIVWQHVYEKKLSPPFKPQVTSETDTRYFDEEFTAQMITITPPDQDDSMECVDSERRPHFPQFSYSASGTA

Molecular target: T1, FLAG-cPLA2α (cytosolic phospholipase A2α) (human) (UniProt P47712)
T1 sequence: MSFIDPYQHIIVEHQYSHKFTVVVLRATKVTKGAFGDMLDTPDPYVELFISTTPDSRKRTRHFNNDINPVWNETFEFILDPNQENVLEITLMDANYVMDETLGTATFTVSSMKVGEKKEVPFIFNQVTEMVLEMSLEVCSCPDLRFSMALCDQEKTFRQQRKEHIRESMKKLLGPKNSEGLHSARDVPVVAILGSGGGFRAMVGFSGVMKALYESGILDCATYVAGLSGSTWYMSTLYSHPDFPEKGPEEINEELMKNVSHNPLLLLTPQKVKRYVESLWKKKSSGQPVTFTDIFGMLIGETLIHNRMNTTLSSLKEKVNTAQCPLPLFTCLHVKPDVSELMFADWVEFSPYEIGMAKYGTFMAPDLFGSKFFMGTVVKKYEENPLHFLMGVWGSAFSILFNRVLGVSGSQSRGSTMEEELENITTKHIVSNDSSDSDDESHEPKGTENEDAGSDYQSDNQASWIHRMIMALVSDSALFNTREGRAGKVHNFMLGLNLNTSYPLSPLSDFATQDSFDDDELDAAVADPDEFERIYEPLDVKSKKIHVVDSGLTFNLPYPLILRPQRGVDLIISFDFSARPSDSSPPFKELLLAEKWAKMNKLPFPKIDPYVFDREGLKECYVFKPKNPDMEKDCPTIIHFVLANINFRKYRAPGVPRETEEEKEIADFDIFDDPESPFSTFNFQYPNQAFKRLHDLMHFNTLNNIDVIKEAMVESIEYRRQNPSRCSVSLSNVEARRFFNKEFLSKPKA
Experiment: co-IP; HEK 293 cells co-transfected with FLAG-cPLA2α and Myr-AKT for 36 h, stimulated with EGF (25 ng/ml, 15 min); 0.5 mg total protein incubated overnight with 2 μg anti-FLAG, anti-AKT or control IgG antibody; eluted proteins immunoblotted with anti-cPLA2α, anti-AKT and anti-pAKT

binding	Substance
binds	Myr-AKT (AKT with a myristoylation signal) (from UniProt P31749 1-480) (enzyme)
binds	pAKT (Myr-AKT phosphorylated at Ser473) (from UniProt P31749 1-480) (enzyme)
